This is an account of results in patent US8545876B1, “Modified drugs for use in liposomal nanoparticles” (The University of British Columbia, priority 2008, dated 2013).

The series is described as follows: Loading efficiency into LN (ammonium sulfate gradient). Format: physicochemical.

In the case of `CN1CCN(CCCC(=O)OCC(=O)[C@@]2(O)CC[C@H]3[C@@H]4CCC5=CC(=O)C=C[C@]5(C)[C@H]4C(=O)C[C@@]32C)CC1` [N-methyl-piperazinyl-butanoic acid ester], the “amount of derivative associated with the LN carrier” value (absence of the ammonium sulfate (pH) gradient) was “no measurable amount”. Where the note is “prednisone derivatives, DSPC/Chol LN, after 15 min of incubation at 60° C., ammonium sulfate gradient, external pH 5”, this compound came in with a loading efficiency of 100%.
On to `COc1cc([C@@H]2c3cc4c(cc3[C@@H](O[C@@H]3O[C@@H]5CO[C@@H](C)O[C@H]5[C@H](O)[C@H]3O)[C@H]3COC(=O)[C@H]23)OCO4)cc(OC)c1OC(=O)CCCN1CCN(C)CC1` [etoposide derivative], for which the loading efficiency (DMPC/Chol LN, within 15 min of incubation at 60° C., drug-to-lipid ratio 0.16 wt/wt) was 100%.
